Results are given in words; binding and its absence hold for the method and conditions named. Binding seen in cells or lysates may run through a third protein. Here binding means that the protein was enriched with, or labelled near, the bait; the list need not be complete.
Target: GATA4, doxycycline-inducible expression in HepG2i cells (human) (UniProt P43694)
Assay: affinity purification with mass spectrometry; immunoprecipitation with anti-GATA4 or control IgG from DOX treated HepG2i cells; SDS-PAGE, silver staining, LC-MS/MS

Chains of the proteins cited; added tags and fusions are not shown.
UniProt P43694: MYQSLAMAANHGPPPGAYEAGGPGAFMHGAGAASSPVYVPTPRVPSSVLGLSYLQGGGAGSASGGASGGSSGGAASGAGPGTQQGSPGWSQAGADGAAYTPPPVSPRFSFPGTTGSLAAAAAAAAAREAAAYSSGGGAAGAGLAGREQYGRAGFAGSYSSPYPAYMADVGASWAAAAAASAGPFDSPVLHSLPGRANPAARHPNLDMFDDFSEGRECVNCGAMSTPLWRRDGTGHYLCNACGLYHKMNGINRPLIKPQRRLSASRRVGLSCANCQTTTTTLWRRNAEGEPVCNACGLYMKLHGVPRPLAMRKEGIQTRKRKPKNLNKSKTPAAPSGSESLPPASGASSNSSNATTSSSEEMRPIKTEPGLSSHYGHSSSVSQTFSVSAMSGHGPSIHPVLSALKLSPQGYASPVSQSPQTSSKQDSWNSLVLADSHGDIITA
UniProt P35222: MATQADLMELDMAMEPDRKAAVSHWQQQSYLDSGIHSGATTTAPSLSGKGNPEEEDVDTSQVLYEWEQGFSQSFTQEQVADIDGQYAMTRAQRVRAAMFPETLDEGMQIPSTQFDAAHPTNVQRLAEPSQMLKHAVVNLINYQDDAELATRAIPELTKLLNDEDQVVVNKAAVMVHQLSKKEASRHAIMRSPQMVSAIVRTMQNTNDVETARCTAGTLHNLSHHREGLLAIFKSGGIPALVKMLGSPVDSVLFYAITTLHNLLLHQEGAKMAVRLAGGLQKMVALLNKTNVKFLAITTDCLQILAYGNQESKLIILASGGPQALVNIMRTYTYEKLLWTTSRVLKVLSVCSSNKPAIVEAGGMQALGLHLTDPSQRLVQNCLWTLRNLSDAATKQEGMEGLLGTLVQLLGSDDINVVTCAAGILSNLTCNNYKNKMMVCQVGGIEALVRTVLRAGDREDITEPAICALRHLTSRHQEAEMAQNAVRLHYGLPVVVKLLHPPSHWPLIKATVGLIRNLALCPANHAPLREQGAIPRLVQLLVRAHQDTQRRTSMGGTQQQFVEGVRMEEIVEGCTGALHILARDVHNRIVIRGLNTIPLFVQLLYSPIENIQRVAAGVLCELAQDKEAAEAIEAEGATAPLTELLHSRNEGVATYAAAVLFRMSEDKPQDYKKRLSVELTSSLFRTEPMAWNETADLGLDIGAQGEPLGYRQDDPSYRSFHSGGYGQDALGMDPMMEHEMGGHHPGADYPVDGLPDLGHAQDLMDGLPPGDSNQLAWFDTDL

- binding: binds
Substance: β-catenin, endogenous in HepG2 / HepG2i cells (from UniProt P35222 1-781)
